Measurements from publication PMC10488256.
These are yes or no findings as the source states them, for the method shown. In cells and extracts the contact can be indirect. Some entries that bind do so weakly or less than the wild type. Sequences can lack the tags named with a protein.

Target: epidermal growth factor receptor (EGFR), Flag-tagged (UniProt P00533)
Assay: co-IP; 293FT cells co-expressing the two tagged proteins (methods: HEK293 cells transiently transfected); lysed in IP-RIPA buffer on ice; lysates incubated with antibody-carrying beads for 4 h; washed; Western blot

binding: binds
B1: zinc finger DHHC-type containing 13 (ZDHHC13) protein with HA tag (enzyme, UniProt Q8IUH4 1-622)
chain: MEGPGLGSQCRNHSHGPHPPGFGRYGICAHENKELANAREALPLIEDSSNCDIVKATQYGIFERCKELVEAGYDVRQPDKENVSLLHWAAINNRLDLVKFYISKGAVVDQLGGDLNSTPLHWAIRQGHLPMVILLLQHGADPTLIDGEGFSSIHLAVLFQHMPIIAYLISKGQSVNMTDVNGQTPLMLSAHKVIGPEPTGFLLKFNPSLNVVDKIHQNTPLHWAVAAGNVNAVDKLLEAGSSLDIQNVKGETPLDMALQNKNQLIIHMLKTEAKMRANQKFRLWRWLQKCELFLLLMLSVITMWAIGYILDFNSDSWLLKGCLLVTLFFLTSLFPRFLVGYKNLVYLPTAFLLSSVFWIFMTWFILFFPDLAGAPFYFSFIFSIVAFLYFFYKTWATDPGFTKASEEEKKVNIITLAETGSLDFRTFCTSCLIRKPLRSLHCHVCNCCVARYDQHCLWTGRCIGFGNHHYYIFFLFFLSMVCGWIIYGSFIYLSSHCATTFKEDGLWTYLNQIVACSPWVLYILMLATFHFSWSTFLLLNQLFQIAFLGLTSHERISLQKQSKHMKQTLSLRKTPYNLGFMQNLADFFQCGCFGLVKPCVVDWTSQYTMVFHPAREKVLRSV
